Laboratory results published in publication PMC8257933.
Results are given in words; binding and its absence hold for the method and conditions named. For some of these results: Binding seen in cells or lysates may run through a third protein. Some binding calls cover weakened binding; strength is not graded here. Sequences can lack the tags named with a protein.

Legend:
[1] = molecular target: T1, NTCP-GFP fusion protein, wild type, on HEK293 cells (human) (UniProt Q14973); test: binding of a fluorescent peptide to transfected cells (fluorescence microscopy); HEK293 cells expressing NTCP-GFP incubated with 50 nM preS1-AF568 in DMEM for 20 min at 37°C, washed with PBS; overlay of green and red fluorescence; only the binder purified
T1 sequence: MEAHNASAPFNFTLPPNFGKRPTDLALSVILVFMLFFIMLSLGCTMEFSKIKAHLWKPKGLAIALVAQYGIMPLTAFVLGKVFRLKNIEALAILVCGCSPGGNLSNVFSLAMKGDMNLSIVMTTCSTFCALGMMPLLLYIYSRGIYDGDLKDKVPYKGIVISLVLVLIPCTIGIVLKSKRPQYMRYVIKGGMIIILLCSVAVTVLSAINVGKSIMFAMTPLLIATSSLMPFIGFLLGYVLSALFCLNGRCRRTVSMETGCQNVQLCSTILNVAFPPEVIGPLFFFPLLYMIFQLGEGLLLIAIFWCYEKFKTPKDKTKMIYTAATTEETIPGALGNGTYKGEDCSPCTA

[2] = molecular target: T2, NTCP-G60LXXXA64L-GFP (TMD2 mutant), on HEK293 cells (human) (UniProt Q14973); test: as above
T2 sequence: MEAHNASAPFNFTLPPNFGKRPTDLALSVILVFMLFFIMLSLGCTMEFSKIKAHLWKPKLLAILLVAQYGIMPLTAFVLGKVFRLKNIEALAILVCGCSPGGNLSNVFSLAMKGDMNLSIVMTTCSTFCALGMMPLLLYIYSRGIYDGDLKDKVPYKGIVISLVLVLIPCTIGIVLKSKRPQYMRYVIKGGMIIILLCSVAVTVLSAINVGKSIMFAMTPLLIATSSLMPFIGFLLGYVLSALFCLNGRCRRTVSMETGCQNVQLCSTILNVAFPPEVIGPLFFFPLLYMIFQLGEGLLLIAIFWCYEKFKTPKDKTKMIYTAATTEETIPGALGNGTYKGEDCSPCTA

[3] = molecular target: T3, Na+/taurocholate co-transporting polypeptide (NTCP), wild type, MYTH bait and prey fusions (human) (UniProt Q14973); test: two-hybrid; split-ubiquitin membrane yeast two-hybrid (MYTH), strain NMY51; NTCP-Cub-LexA-VP16 bait with NTCP-HA-NubG preys; growth (dripping) and colony counts on SD-AHLW plates with 25 mM 3-AT, 30°C, 5 days
T3 sequence: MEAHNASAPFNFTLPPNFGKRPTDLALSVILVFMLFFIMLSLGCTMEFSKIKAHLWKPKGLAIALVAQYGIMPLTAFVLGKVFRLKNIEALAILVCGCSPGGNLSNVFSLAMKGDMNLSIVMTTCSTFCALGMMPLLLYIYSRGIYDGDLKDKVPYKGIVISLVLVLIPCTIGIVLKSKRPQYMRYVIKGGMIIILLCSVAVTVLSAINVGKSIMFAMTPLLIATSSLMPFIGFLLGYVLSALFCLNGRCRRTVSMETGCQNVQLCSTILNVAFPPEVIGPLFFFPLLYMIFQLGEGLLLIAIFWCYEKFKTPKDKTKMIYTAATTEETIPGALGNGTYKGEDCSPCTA

[4] = molecular target: NTCP wild type, NTCP-FLAG and NTCP-V5-His expressed in HEK293 cells (human) (UniProt Q14973); test: co-IP; HEK293 cells co-transfected with NTCP-FLAG and NTCP-V5-His constructs; lysis in 20 mM Tris-HCl, 135 mM NaCl, 10% glycerol, 1% Nonidet P40; anti-FLAG magnetic agarose overnight at 4°C; western blot with anti-V5
[5] = molecular target: T4, NTCP-FLAG G233LXXXG237L (TMD7) mutant (human) (UniProt Q14973); test: as above
T4 sequence: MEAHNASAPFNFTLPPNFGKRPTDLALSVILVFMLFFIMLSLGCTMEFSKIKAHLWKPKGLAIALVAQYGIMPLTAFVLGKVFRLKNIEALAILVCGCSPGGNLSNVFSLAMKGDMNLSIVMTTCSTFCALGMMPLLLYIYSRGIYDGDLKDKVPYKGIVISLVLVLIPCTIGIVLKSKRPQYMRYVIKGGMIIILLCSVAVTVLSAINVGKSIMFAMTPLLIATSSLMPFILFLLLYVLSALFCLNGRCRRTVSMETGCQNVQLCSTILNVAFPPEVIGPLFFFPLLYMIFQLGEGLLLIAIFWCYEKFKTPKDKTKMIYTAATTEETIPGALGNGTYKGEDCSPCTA

[6] = molecular target: T5, NTCP-FLAG G60LXXXA64L (TMD2) mutant (human) (UniProt Q14973); test: as above
T5 sequence: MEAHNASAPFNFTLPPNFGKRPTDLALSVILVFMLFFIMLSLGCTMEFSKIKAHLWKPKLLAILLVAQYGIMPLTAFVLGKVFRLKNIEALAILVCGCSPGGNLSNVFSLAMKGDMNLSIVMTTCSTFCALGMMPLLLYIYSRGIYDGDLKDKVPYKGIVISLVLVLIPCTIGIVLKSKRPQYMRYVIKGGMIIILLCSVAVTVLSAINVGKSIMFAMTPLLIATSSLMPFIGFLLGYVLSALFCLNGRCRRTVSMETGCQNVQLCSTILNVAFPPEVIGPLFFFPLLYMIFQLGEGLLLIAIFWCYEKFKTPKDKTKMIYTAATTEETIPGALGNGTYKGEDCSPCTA

[7] = molecular target: T6, NTCP-FLAG G60LXXXA64L/G233LXXXG237L (TMD2/7) double mutant (human) (UniProt Q14973); test: as above
T6 sequence: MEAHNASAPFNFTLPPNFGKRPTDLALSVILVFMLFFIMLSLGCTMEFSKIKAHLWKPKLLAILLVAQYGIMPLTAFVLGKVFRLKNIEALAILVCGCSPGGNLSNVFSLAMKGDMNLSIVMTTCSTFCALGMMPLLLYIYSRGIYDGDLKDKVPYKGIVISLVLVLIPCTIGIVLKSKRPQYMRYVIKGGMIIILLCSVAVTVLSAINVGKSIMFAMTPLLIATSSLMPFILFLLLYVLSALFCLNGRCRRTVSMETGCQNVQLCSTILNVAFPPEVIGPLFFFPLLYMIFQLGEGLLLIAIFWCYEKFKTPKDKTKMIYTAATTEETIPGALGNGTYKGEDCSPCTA

With “HBV/HDV-derived preS1 2-48 peptide labelled with AlexaFluor568 (from UniProt P03138 2-48)” the binding [1] was “binds” and the binding [2] was “binds”.

B1: Na+/taurocholate co-transporting polypeptide (NTCP), wild type, MYTH bait and prey fusions (protein, UniProt Q14973 1-349)
chain: MEAHNASAPFNFTLPPNFGKRPTDLALSVILVFMLFFIMLSLGCTMEFSKIKAHLWKPKGLAIALVAQYGIMPLTAFVLGKVFRLKNIEALAILVCGCSPGGNLSNVFSLAMKGDMNLSIVMTTCSTFCALGMMPLLLYIYSRGIYDGDLKDKVPYKGIVISLVLVLIPCTIGIVLKSKRPQYMRYVIKGGMIIILLCSVAVTVLSAINVGKSIMFAMTPLLIATSSLMPFIGFLLGYVLSALFCLNGRCRRTVSMETGCQNVQLCSTILNVAFPPEVIGPLFFFPLLYMIFQLGEGLLLIAIFWCYEKFKTPKDKTKMIYTAATTEETIPGALGNGTYKGEDCSPCTA
With B1 the binding [3] was “binds”.

B2: NTCP G60LXXXA64L/G233LXXXG237L (TMD2/7) double mutant, MYTH prey fusion (protein, UniProt Q14973 1-349)
chain: MEAHNASAPFNFTLPPNFGKRPTDLALSVILVFMLFFIMLSLGCTMEFSKIKAHLWKPKLLAILLVAQYGIMPLTAFVLGKVFRLKNIEALAILVCGCSPGGNLSNVFSLAMKGDMNLSIVMTTCSTFCALGMMPLLLYIYSRGIYDGDLKDKVPYKGIVISLVLVLIPCTIGIVLKSKRPQYMRYVIKGGMIIILLCSVAVTVLSAINVGKSIMFAMTPLLIATSSLMPFILFLLLYVLSALFCLNGRCRRTVSMETGCQNVQLCSTILNVAFPPEVIGPLFFFPLLYMIFQLGEGLLLIAIFWCYEKFKTPKDKTKMIYTAATTEETIPGALGNGTYKGEDCSPCTA
In the case of B2, the binding [3] is reported as “binds”.

B3: NTCP wild type, NTCP-FLAG and NTCP-V5-His expressed in HEK293 cells (protein, UniProt Q14973 1-349)
chain: MEAHNASAPFNFTLPPNFGKRPTDLALSVILVFMLFFIMLSLGCTMEFSKIKAHLWKPKGLAIALVAQYGIMPLTAFVLGKVFRLKNIEALAILVCGCSPGGNLSNVFSLAMKGDMNLSIVMTTCSTFCALGMMPLLLYIYSRGIYDGDLKDKVPYKGIVISLVLVLIPCTIGIVLKSKRPQYMRYVIKGGMIIILLCSVAVTVLSAINVGKSIMFAMTPLLIATSSLMPFIGFLLGYVLSALFCLNGRCRRTVSMETGCQNVQLCSTILNVAFPPEVIGPLFFFPLLYMIFQLGEGLLLIAIFWCYEKFKTPKDKTKMIYTAATTEETIPGALGNGTYKGEDCSPCTA
In the case of B3, the binding [4] is reported as “binds”, the binding [5] is reported as “binds” and the binding [6] is reported as “binds”. The binding [7] was “binds”.

B4: NTCP G60LXXXA64L (TMD2) mutant, MYTH prey fusion (protein, UniProt Q14973 1-349)
chain: MEAHNASAPFNFTLPPNFGKRPTDLALSVILVFMLFFIMLSLGCTMEFSKIKAHLWKPKLLAILLVAQYGIMPLTAFVLGKVFRLKNIEALAILVCGCSPGGNLSNVFSLAMKGDMNLSIVMTTCSTFCALGMMPLLLYIYSRGIYDGDLKDKVPYKGIVISLVLVLIPCTIGIVLKSKRPQYMRYVIKGGMIIILLCSVAVTVLSAINVGKSIMFAMTPLLIATSSLMPFIGFLLGYVLSALFCLNGRCRRTVSMETGCQNVQLCSTILNVAFPPEVIGPLFFFPLLYMIFQLGEGLLLIAIFWCYEKFKTPKDKTKMIYTAATTEETIPGALGNGTYKGEDCSPCTA
In the case of B4, the binding [3] is reported as “binds”.

B5: NTCP G233LXXXG237L (TMD7) mutant, MYTH prey fusion (protein, UniProt Q14973 1-349)
chain: MEAHNASAPFNFTLPPNFGKRPTDLALSVILVFMLFFIMLSLGCTMEFSKIKAHLWKPKGLAIALVAQYGIMPLTAFVLGKVFRLKNIEALAILVCGCSPGGNLSNVFSLAMKGDMNLSIVMTTCSTFCALGMMPLLLYIYSRGIYDGDLKDKVPYKGIVISLVLVLIPCTIGIVLKSKRPQYMRYVIKGGMIIILLCSVAVTVLSAINVGKSIMFAMTPLLIATSSLMPFILFLLLYVLSALFCLNGRCRRTVSMETGCQNVQLCSTILNVAFPPEVIGPLFFFPLLYMIFQLGEGLLLIAIFWCYEKFKTPKDKTKMIYTAATTEETIPGALGNGTYKGEDCSPCTA
With B5 the binding [3] was “binds”.
